The record followed here is article PMC2683942, “Unc5B Interacts with FLRT3 and Rnd1 to Modulate Cell Adhesion in Xenopus Embryos” (PLoS ONE, 2009).

Chains of the proteins cited; added tags and fusions are not shown. Lines headed by an entry give the natural chain unless they say otherwise; changes in a name come on top.
UniProt Q8JGT4: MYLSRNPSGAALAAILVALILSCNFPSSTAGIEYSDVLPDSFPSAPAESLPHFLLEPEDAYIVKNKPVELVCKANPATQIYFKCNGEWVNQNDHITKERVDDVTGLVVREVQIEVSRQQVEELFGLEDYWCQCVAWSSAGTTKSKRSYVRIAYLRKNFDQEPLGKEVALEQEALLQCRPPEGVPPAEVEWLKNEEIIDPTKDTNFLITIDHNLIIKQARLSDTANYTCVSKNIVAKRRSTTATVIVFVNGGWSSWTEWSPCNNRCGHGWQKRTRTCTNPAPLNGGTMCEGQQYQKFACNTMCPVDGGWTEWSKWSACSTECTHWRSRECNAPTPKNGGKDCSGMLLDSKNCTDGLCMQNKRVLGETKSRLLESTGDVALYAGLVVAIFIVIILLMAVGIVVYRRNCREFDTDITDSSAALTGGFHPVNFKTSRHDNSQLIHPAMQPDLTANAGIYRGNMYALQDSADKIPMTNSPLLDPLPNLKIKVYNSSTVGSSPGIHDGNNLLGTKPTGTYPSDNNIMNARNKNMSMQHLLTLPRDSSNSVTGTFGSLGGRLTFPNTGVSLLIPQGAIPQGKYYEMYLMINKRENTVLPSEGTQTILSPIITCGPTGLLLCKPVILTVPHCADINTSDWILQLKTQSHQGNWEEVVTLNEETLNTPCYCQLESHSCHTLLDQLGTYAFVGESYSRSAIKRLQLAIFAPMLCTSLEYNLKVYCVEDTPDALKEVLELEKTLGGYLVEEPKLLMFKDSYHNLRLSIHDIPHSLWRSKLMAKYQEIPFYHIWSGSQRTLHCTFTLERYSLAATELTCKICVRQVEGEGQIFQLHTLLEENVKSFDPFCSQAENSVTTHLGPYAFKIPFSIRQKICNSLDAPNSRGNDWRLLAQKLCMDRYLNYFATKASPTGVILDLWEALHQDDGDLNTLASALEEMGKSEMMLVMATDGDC
UniProt P61586: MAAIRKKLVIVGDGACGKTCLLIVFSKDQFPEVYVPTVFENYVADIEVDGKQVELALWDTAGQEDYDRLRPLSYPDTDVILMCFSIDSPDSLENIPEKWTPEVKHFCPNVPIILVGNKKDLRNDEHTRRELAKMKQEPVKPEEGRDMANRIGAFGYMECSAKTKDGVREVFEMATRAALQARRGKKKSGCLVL

No constants are given. Whether binding was seen depends on the method and setting. For part of these data: In cells and extracts the contact can be indirect. For part of these data: Tags and fused reporters may be left off the sequences shown.

For one assay, the target named is Unc5BΔD (Xenopus) (UniProt Q8JGT4). As to the kind of experiment: co-IP; lysates of HEK293T cells overexpressing V5- and HA-tagged proteins, immunoprecipitation and immunoblotting.
For another assay, the target named is Robo3. Briefly: cell surface binding of an alkaline phosphatase fusion protein, chromogenic stain; transfected HEK293T cells incubated 1 h at RT with concentrated AP-FLRT3ΔTM conditioned medium (3 to 8 U/ml AP activity) in DMEM, 10% FCS, 50 mM HEPES; washed with PBS; bound AP stained with Fast Red.
A further assay addresses Robo2. The assay is described as above.

Turning to RhoA (from UniProt P61586 1-193), the binding result in the assay with Unc5BΔD (Xenopus) is on record as “no binding”.

B1: soluble alkaline phosphatase-FLRT3 ectodomain fusion protein (AP-FLRT3ΔTM) (domain or fragment, Xenopus, UniProt Q70AK3 29-527, looked up)
chain: KPCPSVCRCDAGFIYCNDRDLTSIPSGIPDDATTLYLQNNQINNAGIPSDLKGLDKVERIYLYRNSLDEFPINLPKNVKELHLQENNIRTITYDALLQIPFIEELHLDDNSVSAVSIEDGAFRDNIFLRLLFLSRNHLSTIPWGLPKTIEELRLDDNRISTISEISLQDLTNLKRLVLDGNLLNNNGLGERVFMNLINLTELSLVRNSLTSPPANLPGTSLRKLYLQENHMNYVPPNSFADLTQLYRLDMSNNNLTALPQGIFDDLDNLTQLFLRNNPWYCGCKMKWVRDWLQSLPSKVNVRGLMCQAPERVRGMTIKDLNKELFDCKDRIGSNTIHVTTTMLNSLLPAQGQWPVPVTKQPEIRPPDINKIFRTTPIPVKKIITIQVKSITTETIYISWKVALPMTALRLSWQLGHSPVFGSITETIVTGDRAEYLLTALEPESPYRICMVPMETGNIYLSDETPVCIETETAPLKMYNPTTTLNREQEKEPYKNSSLP
notes: FLRT3, Xenopus, ectodomain (ΔTM); also called AP-tagged FLRT3ΔTM; source: conditioned medium, concentrated
With B1, the binding result with Robo3 and with Robo2 was “no binding (tested: 3 to 8 U/ml AP activity)” throughout.
